PubChem BioAssay AID602196, INSERM, 2012

Purpose: 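Modifiers of cisplatin sensitivity in A549 cells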
System: human A549 lung cancer cells
Reagent: siRNA pair against human genes
Timing: 48 h transfection before cisplatin; time from cisplatin to read-out not stated
Treatment: cisplatin at a dose killing half of control-siRNA cells; exact dose and duration not given
Read-out: 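Cisplatin cell death as a shift from the 50% death seen with control siRNA; siRNAs toxic or growth-blocking alone scored 0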
Scale: two-siRNA summed score (-2 to +2): higher = both siRNAs protect from cisplatin killing; -2 means both sensitise
Rule for the call: 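siRNAs harmful alone (LDH or WST-1) get 0; others get +1 for less and -1 for more cisplatin killing; genes are active when the two siRNAs give the same sign, summing to ±2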
Meaning of the calls: active = both siRNAs shift cisplatin killing the same way; inactive = no consistent shift, or siRNA harmful alone
This is an unselected part of about 23,000 deposited reagents. 455 of all reagents (2%) count as active. 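Active includes both protection and sensitisation; some change values fall well beyond the stated -50 to +50 range.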 Not all columns of the deposit are shown. No sequences are given here. The record does not give: the amount of reagent.

{"gene":"COPS7B","two-siRNA summed score (-2 to +2)":0,"Call":"inactive"}
{"gene":"GATA6","two-siRNA summed score (-2 to +2)":0,"Call":"inactive"}
{"gene":"GJA4","two-siRNA summed score (-2 to +2)":-1,"Call":"inactive"}
{"gene":"HTR2C","two-siRNA summed score (-2 to +2)":0,"Call":"inactive"}
{"gene":"NAA10","two-siRNA summed score (-2 to +2)":0,"Call":"inactive"}
{"gene":"TECR","two-siRNA summed score (-2 to +2)":0,"Call":"inactive"}
{"gene":"CLU","two-siRNA summed score (-2 to +2)":0,"Call":"inactive"}
{"gene":"PTPRS","two-siRNA summed score (-2 to +2)":1,"Call":"inactive"}
{"gene":"BRINP2","two-siRNA summed score (-2 to +2)":0,"Call":"inactive"}
{"gene":"ARG99","two-siRNA summed score (-2 to +2)":1,"Call":"inactive"}
{"gene":"NFS1","two-siRNA summed score (-2 to +2)":0,"Call":"inactive"}
{"gene":"CEP128","two-siRNA summed score (-2 to +2)":0,"Call":"inactive"}
{"gene":"ARF4","two-siRNA summed score (-2 to +2)":0,"Call":"inactive"}
{"gene":"EPYC","two-siRNA summed score (-2 to +2)":0,"Call":"inactive"}
{"gene":"TMEM229B","two-siRNA summed score (-2 to +2)":0,"Call":"inactive"}
{"gene":"VAPA","two-siRNA summed score (-2 to +2)":0,"Call":"inactive"}
{"gene":"MRPS24","two-siRNA summed score (-2 to +2)":0,"Call":"inactive"}
{"gene":"LOC442565","two-siRNA summed score (-2 to +2)":1,"Call":"inactive"}
{"gene":"CDT1","two-siRNA summed score (-2 to +2)":0,"Call":"inactive"}
{"gene":"LINC01002","two-siRNA summed score (-2 to +2)":0,"Call":"inactive"}
{"gene":"CNGA2","two-siRNA summed score (-2 to +2)":-1,"Call":"inactive"}
{"gene":"LINC03086","two-siRNA summed score (-2 to +2)":0,"Call":"inactive"}
{"gene":"KDM2A","two-siRNA summed score (-2 to +2)":-1,"Call":"inactive"}
{"gene":"LOC340228","two-siRNA summed score (-2 to +2)":0,"Call":"inactive"}
{"gene":"C22orf39","two-siRNA summed score (-2 to +2)":0,"Call":"inactive"}
{"gene":"HHIPL2","two-siRNA summed score (-2 to +2)":0,"Call":"inactive"}
{"gene":"MFSD6","two-siRNA summed score (-2 to +2)":0,"Call":"inactive"}
{"gene":"P3H3","two-siRNA summed score (-2 to +2)":1,"Call":"inactive"}
{"gene":"WT1-AS","two-siRNA summed score (-2 to +2)":0,"Call":"inactive"}
{"gene":"CXXC4","two-siRNA summed score (-2 to +2)":0,"Call":"inactive"}
{"gene":"ALKAL1","two-siRNA summed score (-2 to +2)":0,"Call":"inactive"}
{"gene":"LOC391813","two-siRNA summed score (-2 to +2)":0,"Call":"inactive"}
{"gene":"CTSA","two-siRNA summed score (-2 to +2)":0,"Call":"inactive"}
{"gene":"LOC440373","two-siRNA summed score (-2 to +2)":0,"Call":"inactive"}
{"gene":"LOC440204","two-siRNA summed score (-2 to +2)":1,"Call":"inactive"}
{"gene":"IPO13","two-siRNA summed score (-2 to +2)":1,"Call":"inactive"}
{"gene":"MRGPRG-AS1","two-siRNA summed score (-2 to +2)":0,"Call":"inactive"}
{"gene":"LOC441330","two-siRNA summed score (-2 to +2)":0,"Call":"inactive"}
{"gene":"OR10J1","two-siRNA summed score (-2 to +2)":0,"Call":"inactive"}
{"gene":"STBD1","two-siRNA summed score (-2 to +2)":0,"Call":"inactive"}

In a second layout: results already given.
gene,two-siRNA summed score (-2 to +2),Call
TMEM229B,0,inactive
VAPA,0,inactive
